For some assays here: For expression read-outs the peptide stands for its source gene, whose mRNA was measured; the gene is not named for every peptide.
Legend:
[1] = test system: source genes of the peptides (mRNA); assay: Source gene/exon expression, TCGA tumor samples versus normal tissue RNASeq database (target coverage); design: species or system human; settings: KICH = Kidney chromophobe (N = 66); TCGA tumors >2-fold above highest 75% percentile of normal tissues
[2] = test system: HLA-A*02 molecules of primary tumor and normal tissue samples; assay: Identification and label-free relative LC-MS quantitation of HLA-A*02 tumor associated peptides presented on tissue samples (XPRESIDENT); design: species or system human; key to Presentation score AML / Presentation score UEC / Presentation score CLL / Presentation score CRC: specifically presented on tumors (++++); very highly over-presented on tumors compared to a panel of normal tissues (+++); highly over-presented on tumors compared to a panel of normal tissues (++); over-presented on tumors compared to a panel of normal tissues (+); settings: HLA-A*02 peptides; CRC = colorectal cancer (N = 28) vs panel of normal tissues (N = 262)

| Substance | Over-expression category of source gene (target coverage), KICH [1] | Presentation score CRC [2] |
| --- | --- | --- |
| 235: peptide found in MSH6 (gene looked up) (KIIDFLSAL; listed as Homo sapiens) [compound 235] | A (>=50% of tumors above the cutoff) |  |
| 293 (FLVDGSWSI; listed as Homo sapiens) [compound 293] |  | ++++ |

Source: US10143730B2, “Peptides and combination of peptides for use in immunotherapy against various cancers” (immatics biotechnologies GmbH, priority 2015, dated 2018)
